# Results reported in the supplement of paper PMC8728848.
# The list shows a part of the results.
# Key:
# [1] = molecular target: Neu5Gc(a2-8)Neu5Gc(a2-6)Gal(b1-4)GlcNAc; assay: glycan array binding signal (z-score within array); higher = stronger binding; settings: glycan notation: IUPAC condensed, linker removed
# How it was run: (§1)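 Glycan array data were curated from 3228 arrays in the Consortium for Functional Glycomics database and kept only where the protein sequence was available. Glycan names were converted to IUPAC-condensed notation, and columns mapping to the same glycan were averaged. The binding signal is a within-array Z-score, averaged across arrays of the same protein sequence at different concentrations or buffers and across linkers. Negative Z-scores can be read as non-binding.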
# [2] = molecular target: Neu5Gc(b2-6)Gal(b1-4)GlcNAc; assay: as above; settings: glycan notation: IUPAC condensed, linker removed
# How it was run: as §1
binder,measurement,setting,value
GS7807F-bth-514-18-514 (Bacteroides thetaiotaomicron) (protein) AGSCTGNFEEYNTNQFQIHEADPSTLMKSMIETIVNIQQNDSQMMDQMVGQLGGYLTCANVWSGTNFGTFNQSDAWNAGPWNTNFEKIYGNFFQIQEATNESGHYYAFARMIRAITMLRVADCYGPMPYSQVKKGNFYVAYDTEEQVYKNIMEDFASAANVLYNYYKDTNGNAPLASNDPVFSGNYANWARLANSMRLRVAIRISTAYPEMAKENAEAAASHEAGLIEANNDNAMMDCGSQTNPYQLAAVSWGDLRVNANIVDYMNGYGDPRMSKYFNHSTFTGHTQEYVGMRSGEDGFAKSDVAGYSIPAITGTSKLLVFCAAETAFLRAEGKLKNWSVGNKSAKEYYEEGIKLSMEQYGTTMPDNYLTNTEKPTVSHNNDPRGHAYTISNTVAVAWNDNNEEENLQRIITQKWIANYPLGLEAWAEYRRTGYPELYPCIDNLSPSGVDSKRGMRRLRFPYTEVQNNHSNYQQGVSYLKNGGPDNEATDLSWGKTN,glycan array binding signal (z-score),[1],-0.26
same,glycan array binding signal (z-score),[2],0.477
